First the molecules themselves.
B1: 99mTc-CX3CR1BII316 (VHH)
VHH: EVQLVESGGGSVQAGESLRLSCAASGSIFSSNAMAWYRQAPPGKQRDLVALINSVGITKYADSVKGRFTISSDNAKNTVYLEMNSLKPEDTAVYYCTSDGRRGWDTRYWGQGTQVTVSS
modifications: 99mTc-tricarbonyl on the C-terminal hexahistidine tag
B2: 99mTc-CX3CR1BII18E06 (VHH)
VHH: KVQLVESGGGLVQPGGSLRLSCATSGTIFSNNAMGWYRQAPGKKRDLVASISSSGSTNYADSVKGRFTVSRDNDKNTGYLQMNSLKPEDTGVYYCTLDARRGWNTAYWGQGAQVTVSS
modifications: 99mTc-tricarbonyl on the C-terminal hexahistidine tag
B3: 99mTc-CX3CR1BII317 (VHH)
chain: EVQLVESGGGLVQAGGSLRLSCVASGRTFSSYAMGWFRQAPGKERAFVAGISGSASRKYYADSVKGRFTVSRDNARNTVYLQMNSLKPEDTAVYYCAASNSYPKVQFDYYGQGTLVTVSSGGGGSGGGGSGGGGSGGGGSGGGGSGGGGSGGGGSEVQLVESGGGLVQAGGSLRLSCVASGRTFSSYAMGWFRQAPGKERAFVAGISGSASRKYYADSVKGRFTVSRDNARNTVYLQMNSLKPEDTAVYYCAASNSYPKVQFDYYGQGTLVTVSSAAAEQKLISEEDLNGAAHHHHHH
modifications: 99mTc-tricarbonyl on the C-terminal hexahistidine tag
B4: 99mTc-CX3CR1BII318 (VHH)
chain: EVQLVESGGGSVQAGESLRLSCAASGSIFSSNAMAWYRQAPGKRRDLVAAINSVGVTKYADSVKGRFTISRDNAKNTVYLQMNSLKPEDTAVYYCTSDPRRGWDTRYWGQGTQVTVSSGGGGSGGGGSGGGGSGGGGSGGGGSGGGGSGGGGSEVQLVESGGGSVQAGESLRLSCAASGSIFSSNAMAWYRQAPGKRRDLVAAINSVGVTKYADSVKGRFTISRDNAKNTVYLQMNSLKPEDTAVYYCTSDPRRGWDTRYWGQGTQVTVSSAAAEQKLISEEDLNGAAHHHHHH
modifications: 99mTc-tricarbonyl on the C-terminal hexahistidine tag
B5: 99mTc-CX3CR1BII66B02 (VHH)
VHH: EVQLVESGGGSVQAGESLRLSCAASGSIFSSNAMAWYRQAPGKRRDLVAAINSVGVTKYADSVKGRFTISRDNAKNTVYLQMNSLKPEDTAVYYCTSDPRRGWDTRYWGQGTQVTVSS
modifications: 99mTc-tricarbonyl on the C-terminal hexahistidine tag
B6: 99mTc-CX3CR1BII315 (VHH)
VHH: EVQLVESGGGLVQAGGSLRLSCVASGRTFSSYAMGWFRQAPGKERAFVAGISGSASRKYYADSVKGRFTVSRDNARNTVYLQMNSLKPEDTAVYYCAASNSYPKVQFDYYGQGTQVTVSS
modifications: 99mTc-tricarbonyl on the C-terminal hexahistidine tag

Results are given in words; binding and its absence hold for the method and conditions named. Binding calls can cover weak binding; strength is not graded here.

The target of this test is human CX3CR1 (human). The experiment in a line: radioligand cell binding, 1 nM 99mTc-VHH on CHO-hCX3CR1 vs CHO-WT cells, gamma counting.
On to B1, for which the binding result is recorded as “binds”.
In the case of B2, the binding result was “binds”.
As for B3, the binding result is reported as “binds”.
With B4 the entry was “binds”.
With B5 the entry was “binds”.
Turning to B6, the binding result is “binds”.

The values are drawn from patent US20150056133A1.
